{
  "source": "patent US8268882B2",
  "about": "(priority 2009, dated 2012)",
  "experiment": "Conversion to triptolide on incubation in serum",
  "type": "in vitro ADME",
  "note": "Some of these results come from one statement about several compounds together.",
  "data": [
    {"molecule": "CC(C)[C@]1(O)[C@H](Cl)[C@@H]2O[C@]23[C@@]2(OC(=O)O[C@H]12)[C@H](Cl)C[C@H]1C2=C(CC[C@@]13C)C(=O)OC2", "note": "[PG757]", "values": [
      {"measurement": "time for conversion to triptolide in serum", "result": "≤ 5", "unit": "min"}
    ]},
    {"molecule": "CC(C)[C@]12O[C@H]1[C@@H]1O[C@]13[C@@]1(OC(=O)O[C@H]21)[C@H](Cl)C[C@H]1C2=C(CC[C@@]13C)C(=O)OC2", "note": "[PG762]", "values": [
      {"measurement": "time for conversion to triptolide in serum", "result": "≤ 5", "unit": "min"}
    ]}
  ]
}
